The text below walks through data of the supplement of paper PMC3682954.

Molecules are shown by their SMILES. Where “and” joins values, the source holds several entries; their conditions need not be identical. Equal values may be shown once. Where a name gives a salt, the structure may show the parent alone. ± gives the standard deviation of the averaged measurements. Some of the results follow. Most values come without repeats; read them as rough.

For the experiment, the system named is RAW 264.7. Description: HMGB1-induced TNF-alpha production relative to HMGB1-stimulated control; higher = more TNF-alpha secretion (less inhibition). The note with it: stimulus: HMGB1 5 ug/ml, 18 h.
The mark [1] stands for this setting: compound concentration: 1 ug/ml.

With `CN(C)C/C=C(/c1ccc(Br)cc1)c1cccnc1` [Zimelidine dihydrochloride monohydrate], the “HMGB1-induced TNF-alpha production” value (compound concentration: 3 uM) was 78%.
Turning to `CN(C)C/C=C(/c1ccc(Br)cc1)c1cccnc1` [Zimelidine dihydrochloride], the “HMGB1-induced TNF-alpha production” value (compound concentration: 3 uM) was determined as 88.2%.
The same measure, in the same setting: then `CC(C)(CO)C(O)C(=O)NCCCO` (centres undefined), with 84.2%.
The same measure, in the same setting: in the case of `CC(C)(CO)C(O)C(=O)NCCCO` (centres undefined) [Panthenol (D)] it was 78.3%; in that of `CCOc1ccc2ccccc2c1C(=O)N[C@@H]1C(=O)N2[C@@H]1SC(C)(C)[C@@H]2C(=O)O`, 98.3%; in that of `CCOc1ccc2ccccc2c1C(=O)N[C@@H]1C(=O)N2[C@@H]1SC(C)(C)[C@@H]2C(=O)O` [Nafcillin sodium salt monohydrate], 119%.
With `Cn1cnc2c1c(=O)[nH]c(=O)n2C` [Theobromine], the “HMGB1-induced TNF-alpha production” value turned out to be 76.8% under setting [1] and 107 ± 17% (compound concentration: 3 uM).
With `Cn1cnc2c1c(=O)[nH]c(=O)n2C`, for the setting “compound concentration: 3 uM”, the “HMGB1-induced TNF-alpha production” value was 83.7%.
Still for that read-out and setting: in the case of `C[n+]1c2cc(N)ccc2cc2ccc(N)cc21` it was 62.2 ± 8.9%; in that of `O=C(N[C@H](CO)[C@H](O)c1ccc([N+](=O)[O-])cc1)C(Cl)Cl`, 87.5 ± 7.1%.
`O=C(N[C@H](CO)[C@H](O)c1ccc([N+](=O)[O-])cc1)C(Cl)Cl` [Chloramphenicol]: the “HMGB1-induced TNF-alpha production” value was 70.4% under setting [1] and 84 ± 20% (compound concentration: 3 uM).
Regarding `O=C(O)CCNC(=O)c1ccccc1`, the “HMGB1-induced TNF-alpha production” value (compound concentration: 3 uM) worked out at 84.7%.
As to `O=C(O)C1OC(O)C(O)C(O)C1O` (centres undefined), under setting [1], the “HMGB1-induced TNF-alpha production” value is 75.8%.
`CCC[C@@H]1C[C@@H](C(=O)N[C@@H]([C@H]2O[C@H](SC)[C@H](O)[C@@H](O)[C@H]2O)[C@H](C)Cl)N(C)C1`: for the setting “compound concentration: 3 uM”, the “HMGB1-induced TNF-alpha production” value worked out at 88.2 ± 4.3%.
Same read-out and setting: then `CCC[C@@H]1C[C@@H](C(=O)N[C@@H]([C@H]2O[C@H](SC)[C@H](O)[C@@H](O)[C@H]2O)[C@H](C)Cl)N(C)C1` [Clindamycin hydrochloride], with 77.8%; and `CCC[C@@H]1C[C@@H](C(=O)N[C@@H]([C@H]2O[C@H](SC)[C@H](O)[C@@H](O)[C@H]2O)[C@H](C)Cl)N(C)C1` [Clindamycin], with 93.6 ± 7.9%.
The same measure, in the same setting: in the case of `C=C1/C(=C\C=C2/CCC[C@]3(C)[C@@H]([C@H](C)CCCC(C)C)CC[C@@H]23)C[C@@H](O)C[C@@H]1O` [Alfacalcidol] it was 95.6 ± 11%; in that of `CCN(CC)CCOC(=O)c1cc(Cl)c(N)cc1OC` [SDZ-205,557 hydrochloride], 102%.
Still for that read-out and setting: then `NC/C=C/C(=O)O` [(E)-4-amino-2-butenoic acid], with 115%; and `CC(=O)N[C@@H](Cc1c[nH]c2ccccc12)C(=O)OCc1cc(C(F)(F)F)cc(C(F)(F)F)c1`, with 81.1%; and `Cc1ccc2c(c1)c1c3n2CCNC3CCC1` (centres undefined) [Pirlindole mesylate], with 101%.
In the case of `CCN(c1nc(N)c(C(=O)NC(=N)N)nc1Cl)C(C)C` [5-(N-Ethyl-N-isopropyl)amiloride], the “HMGB1-induced TNF-alpha production” value (compound concentration: 3 uM) was 77.5%.
Turning to `O=C(O)Cc1c[nH]c2ccc(O)cc12` [5-Hydroxyindolacetic acid], the “HMGB1-induced TNF-alpha production” value (compound concentration: 3 uM) stood at 105%.
Still for that read-out and setting: in the case of `CN(C)CCC=C1c2ccccc2COc2ccccc21` [Doxepin] it was 104%.
On the same count and under the same terms, then `CN(C)CCC=C1c2ccccc2COc2ccccc21` [Doxepin hydrochloride], with 77.6 ± 6.4%; and `CN(C)CCC=C1c2ccccc2COc2ccccc21`, with 82.3%; and `CC(C)[N+](C)(CCOC(=O)C1c2ccccc2Oc2ccccc21)C(C)C` [Propantheline bromide], with 115 ± 6%.
Still for that read-out and setting: in the case of `CC(C)[N+](C)(CCOC(=O)C1c2ccccc2Oc2ccccc21)C(C)C` it was 84.2%; in that of `CN1CCC[C@@H]1Cc1c[nH]c2ccc(CCS(=O)(=O)c3ccccc3)cc12`, 81.5%; in that of `COc1ccccc1Oc1c(NS(=O)(=O)c2ccc(C(C)(C)C)cc2)nc(-c2ncccn2)nc1OCCO` [Bosentan], 102 ± 6%.
Consider `Nc1ccccc1S(N)(=O)=O` [2-Aminobenzenesulfonamide], for which the “HMGB1-induced TNF-alpha production” value (compound concentration: 3 uM) stood at 87%.
With `OCc1cccnc1`, the “HMGB1-induced TNF-alpha production” value (compound concentration: 3 uM) is 95.2% and 110%.
On the same count and under the same terms, in the case of `NC[C@@H]1O[C@H](O[C@H]2[C@@H](O)[C@H](O[C@@H]3[C@@H](O)[C@H](N)C[C@H](N)[C@H]3O[C@H]3O[C@H](CO)[C@@H](O)[C@H](O)[C@H]3N)O[C@@H]2CO)[C@H](N)[C@@H](O)[C@@H]1O` it was 91.7%.
Still for that read-out and setting: then `NC[C@@H]1O[C@H](O[C@H]2[C@@H](O)[C@H](O[C@@H]3[C@@H](O)[C@H](N)C[C@H](N)[C@H]3O[C@H]3O[C@H](CO)[C@@H](O)[C@H](O)[C@H]3N)O[C@@H]2CO)[C@H](N)[C@@H](O)[C@@H]1O` [Paromomycin sulfate], with 102 ± 6.1%; and `CC[C@]1(O)C[C@H]2CN(CCc3c([nH]c4ccccc34)[C@@](C(=O)OC)(c3cc4c(cc3OC)N(C=O)[C@H]3[C@@](O)(C(=O)OC)[C@H](OC(C)=O)[C@]5(CC)C=CCN6CC[C@]43[C@@H]65)C2)C1` [Vincristine sulfate], with 136%; and `CC[C@]1(O)C[C@H]2CN(CCc3c([nH]c4ccccc34)[C@@](C(=O)OC)(c3cc4c(cc3OC)N(C=O)[C@H]3[C@@](O)(C(=O)OC)[C@H](OC(C)=O)[C@]5(CC)C=CCN6CC[C@]43[C@@H]65)C2)C1` [Vincristine], with 44.3%.
On the same count and under the same terms, in the case of `CC[C@]1(O)C[C@H]2CN(CCc3c([nH]c4ccccc34)[C@@](C(=O)OC)(c3cc4c(cc3OC)N(C=O)[C@H]3[C@@](O)(C(=O)OC)[C@H](OC(C)=O)[C@]5(CC)C=CCN6CC[C@]43[C@@H]65)C2)C1` it was 157 ± 47%.
